Here are results for one molecule from PMC9612488.

Chains of the proteins cited; added tags and fusions are not shown.
UniProt P50887: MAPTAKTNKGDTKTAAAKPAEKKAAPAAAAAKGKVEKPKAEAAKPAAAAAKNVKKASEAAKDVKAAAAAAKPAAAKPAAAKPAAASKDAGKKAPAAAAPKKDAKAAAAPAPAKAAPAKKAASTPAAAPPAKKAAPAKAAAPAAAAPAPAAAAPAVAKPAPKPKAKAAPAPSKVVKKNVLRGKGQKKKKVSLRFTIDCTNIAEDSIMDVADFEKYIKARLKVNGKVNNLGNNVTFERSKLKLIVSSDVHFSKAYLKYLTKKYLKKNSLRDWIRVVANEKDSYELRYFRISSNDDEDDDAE

Results are given in words; binding and its absence hold for the method and conditions named. In cells and extracts the contact can be indirect.

For this test, the target named is Flag-RpL22 (UniProt P50887). Nature of the test: co-IP; lysates of stably transfected S2 cells expressing Flag-Edis-p or Flag-RpL22; anti-Flag immunoprecipitation; immunoblot with anti-Relish and anti-Flag; lysis buffer 20 mM Tris-HCl pH 7.6, 150 mM NaCl, 2 mM EDTA, 10% glycerol, 1% Triton X-100, 1 mM DTT.

B1: endogenous Relish (protein, UniProt Q94527 1-971)
chain: MNMNQYYDLDNGKNVMFMNDASSTSGYSSSTSPNSTNRSFSPAHSPKTMELQTDFANLNLPGGNSPHQPPMANSPYQNQLLNNGGICQLGATNLINSTGVSFGVANVTSFGNMYMDHQYFVPAPATVPPSQNFGYHQNGLASDGDIKHVPQLRIVEQPVEKFRFRYKSEMHGTHGSLNGANSKRTPKTFPEVTLCNYDGPAVIRCSLFQTNLDSPHSHQLVVRKDDRDVCDPHDLHVSKERGYVAQFINMGIIHTAKKYIFEELCKKKQDRLVFQMNRRELSHKQLQELHQETEREAKDMNLNQVRLCFEAFKIEDNGAWVPLAPPVYSNAINNRKSAQTGELRIVRLSKPTGGVMGNDELILLVEKVSKKNIKVRFFEEDEDGETVWEAYAKFRESDVHHQYAIVCQTPPYKDKDVDREVNVYIELIRPSDDERSFPALPFRYKPRSVIVSRKRRRTGSSANSSSSGTESSNNSLDLPKTLGLAQPPNGLPNLSQHDQTISEEFGREKHLNEFIASEDFRKLIEHNSSDLEKICQLDMGELQHDGHNRAEVPSHRNRTIKCLDDLFEIYKQDRISPIKISHHKVEKWFIEHALNNYNRDTLLHEVISHKKDKLKLAIQTIQVMNYFNLKDVVNSTLNADGDSALHVACQQDRAHYIRPLLGMGCNPNLKNNAGNTPLHVAVKEEHLSCVESFLNGVPTVQLDLSLTNDDGLTPLHMAIRQNKYDVAKKLISYDRTSISVANTMDGNNALHMAVLEQSVELLVLILDAQNENLTDILQAQNAAGHTPLELAERKANDRVVQLLKNVYPEKGELAMTWIPCKVKEEIDSSSDESSDAGQLEIKSEEMDIETKDEDSVELDLSSGPRRQKDESSRDTEMDNNKLQLLLKNKFIYDRLCSLLNQPLGHGSDPQDRKWMQLARQTHLKQFAFIWLGAEDLLDHVKRKGASVEFSTFARALQAVDPQAYALLVNPT
Consider B1, for which the binding entry is recorded as “no binding”.
